These are yes or no findings as the source states them, for the method shown. Binding calls can cover weak binding; strength is not graded here.
Biological target: T1, mature GDF8 (growth/differentiation factor 8, myostatin), unbound mature ligand (UniProt O14793)
T1 sequence: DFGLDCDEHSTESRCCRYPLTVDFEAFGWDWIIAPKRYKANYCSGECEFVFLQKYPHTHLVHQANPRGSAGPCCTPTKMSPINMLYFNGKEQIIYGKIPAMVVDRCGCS
Assay: SEC

Question: With “human GDF8 prodomain (residues 24-262) 4xCtoS, I53E (from UniProt O14793) (domain or fragment)” as the substance, how does the binding read?
Answer: no binding

Question: How did the binding turn out when “human GDF8 prodomain (residues 24-262) 4xCtoS, I56A (from UniProt O14793) (domain or fragment)” was run?
Answer: binds
